Measurements taken from PMC9724427.
These are yes or no findings as the source states them, for the method shown. In cells and extracts the contact can be indirect. Some binding calls cover weakened binding; strength is not graded here.

By UniProt entry, the sequences of proteins in these tests, tags left out.
UniProt P35222: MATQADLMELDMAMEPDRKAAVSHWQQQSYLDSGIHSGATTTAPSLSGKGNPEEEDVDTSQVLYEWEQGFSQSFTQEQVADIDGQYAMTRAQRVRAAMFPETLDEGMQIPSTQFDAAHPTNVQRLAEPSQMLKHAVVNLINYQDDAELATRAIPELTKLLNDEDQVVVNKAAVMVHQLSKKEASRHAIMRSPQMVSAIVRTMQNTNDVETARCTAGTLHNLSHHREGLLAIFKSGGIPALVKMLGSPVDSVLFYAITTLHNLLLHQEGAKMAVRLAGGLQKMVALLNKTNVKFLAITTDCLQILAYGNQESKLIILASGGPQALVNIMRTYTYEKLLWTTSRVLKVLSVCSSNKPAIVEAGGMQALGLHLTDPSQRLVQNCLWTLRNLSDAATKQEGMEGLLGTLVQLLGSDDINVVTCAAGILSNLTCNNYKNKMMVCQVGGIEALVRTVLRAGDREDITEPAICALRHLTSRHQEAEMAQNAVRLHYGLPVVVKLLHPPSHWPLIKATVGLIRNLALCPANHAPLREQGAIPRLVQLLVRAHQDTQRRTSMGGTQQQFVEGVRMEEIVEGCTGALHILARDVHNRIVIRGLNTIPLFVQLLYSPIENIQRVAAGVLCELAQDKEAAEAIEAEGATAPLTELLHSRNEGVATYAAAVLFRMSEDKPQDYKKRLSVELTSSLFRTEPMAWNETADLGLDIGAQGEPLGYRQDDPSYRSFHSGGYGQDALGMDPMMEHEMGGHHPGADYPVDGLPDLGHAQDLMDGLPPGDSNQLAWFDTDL

Target: T1, Discoidin domain-containing receptor 2 (human (endogenous in hepatoma cells)) (UniProt Q16832)
T1 sequence: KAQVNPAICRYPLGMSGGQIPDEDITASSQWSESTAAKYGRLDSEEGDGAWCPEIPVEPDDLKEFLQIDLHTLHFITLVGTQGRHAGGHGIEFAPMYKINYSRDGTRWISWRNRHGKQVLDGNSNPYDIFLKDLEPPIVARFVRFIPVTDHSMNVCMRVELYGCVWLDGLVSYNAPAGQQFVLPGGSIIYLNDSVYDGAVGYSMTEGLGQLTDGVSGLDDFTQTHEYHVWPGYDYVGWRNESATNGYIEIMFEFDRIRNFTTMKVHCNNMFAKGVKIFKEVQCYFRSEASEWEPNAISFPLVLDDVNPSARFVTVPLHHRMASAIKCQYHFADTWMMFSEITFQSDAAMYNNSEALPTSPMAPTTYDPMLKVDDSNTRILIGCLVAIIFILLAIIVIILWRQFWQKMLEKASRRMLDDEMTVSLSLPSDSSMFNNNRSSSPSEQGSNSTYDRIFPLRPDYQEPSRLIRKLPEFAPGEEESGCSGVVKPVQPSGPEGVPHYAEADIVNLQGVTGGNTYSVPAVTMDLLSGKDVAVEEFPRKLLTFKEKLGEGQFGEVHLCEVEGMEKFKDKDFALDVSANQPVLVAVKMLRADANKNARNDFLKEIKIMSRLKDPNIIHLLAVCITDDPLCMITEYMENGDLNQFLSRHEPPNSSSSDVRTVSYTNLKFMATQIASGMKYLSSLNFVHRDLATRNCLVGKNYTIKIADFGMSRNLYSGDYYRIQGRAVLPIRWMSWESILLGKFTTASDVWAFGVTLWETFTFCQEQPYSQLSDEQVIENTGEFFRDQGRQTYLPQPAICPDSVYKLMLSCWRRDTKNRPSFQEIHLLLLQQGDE
Experiment: co-IP; Pierce Crosslink Magnetic IP/Co-IP Kit; protein A/G magnetic beads pre-bound to an antibody against DDR2, incubated with cell lysates at 4 °C overnight, low-pH elution, western blot; cells with CEBPA-DT silencing or overexpression

With β-catenin (from UniProt P35222 1-781) the binding was “binds”.
